According to PMC4931243:
Results are given in words; binding and its absence hold for the method and conditions named. Sequences can lack the tags named with a protein. Each block holds one binder with its values, some of them ahead of it.

Key:
[1] = biological target: T1, MapZ_(extra2), C-terminal subdomain of the extracellular domain of MapZ (residues 355-464), His tag cleaved (Streptococcus pneumoniae R800) (UniProt Q8DR55); assay: condition: 0.5 μM MapZextra1 (highest concentration injected); SPR; BIAcore T100; MapZextra2 covalently coupled to a CM5 sensorchip, MapZextra1 injected at 0.01-0.5 μM, 30 μl/min, 10 mM HEPES pH 7.4, 150 mM NaCl, 0.005% surfactant P20; both purified
T1 sequence: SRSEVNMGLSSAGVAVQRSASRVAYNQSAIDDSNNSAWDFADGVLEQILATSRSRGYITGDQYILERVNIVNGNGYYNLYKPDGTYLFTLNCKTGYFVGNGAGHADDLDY

[2] = biological target: T2, His7-MapZ_(extra1), 13C,15N-labelled N-terminal subdomain of the extracellular domain of MapZ (residues 182-313), tag not cleaved (Streptococcus pneumoniae R800) (UniProt Q8DR55); assay: condition: 100 μM MapZextra1 with two molar equivalents of MapZextra2; NMR titration; 2D [1H,15N]-BEST-TROSY of 100 μM 13C,15N-MapZextra1 before and after addition of two molar equivalents of 13C,15N-MapZextra2; 50 mM Tris, 100 mM NaCl, 10% D2O, pH 7.5, 298 K; both purified
T2 sequence: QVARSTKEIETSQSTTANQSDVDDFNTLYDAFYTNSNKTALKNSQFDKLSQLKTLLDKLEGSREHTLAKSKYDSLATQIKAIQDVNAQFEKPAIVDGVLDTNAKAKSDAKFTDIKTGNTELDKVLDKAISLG

binding [1]: no binding
B1: MapZ_(extra1), N-terminal subdomain of the extracellular domain of MapZ (residues 182-313), His tag cleaved (domain or fragment, UniProt Q8DR55 182-313)
chain: T2 sequence

binding [2]: no binding
B2: His7-MapZ_(extra2), 13C,15N-labelled C-terminal subdomain of the extracellular domain of MapZ (residues 355-464), tag not cleaved (domain or fragment, UniProt Q8DR55 355-464)
chain: T1 sequence
